The text below walks through data of publication PMC11432245.

The chains behind the UniProt entries cited, without tags or fusion partners.
UniProt Q9BSM1: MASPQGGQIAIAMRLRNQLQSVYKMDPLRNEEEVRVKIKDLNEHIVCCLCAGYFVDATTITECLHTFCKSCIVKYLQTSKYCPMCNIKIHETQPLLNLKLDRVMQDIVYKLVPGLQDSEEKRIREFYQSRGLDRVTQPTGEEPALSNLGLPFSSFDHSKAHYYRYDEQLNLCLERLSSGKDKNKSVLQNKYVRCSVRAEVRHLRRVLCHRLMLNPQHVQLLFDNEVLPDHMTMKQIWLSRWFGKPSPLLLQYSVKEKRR
UniProt P35226: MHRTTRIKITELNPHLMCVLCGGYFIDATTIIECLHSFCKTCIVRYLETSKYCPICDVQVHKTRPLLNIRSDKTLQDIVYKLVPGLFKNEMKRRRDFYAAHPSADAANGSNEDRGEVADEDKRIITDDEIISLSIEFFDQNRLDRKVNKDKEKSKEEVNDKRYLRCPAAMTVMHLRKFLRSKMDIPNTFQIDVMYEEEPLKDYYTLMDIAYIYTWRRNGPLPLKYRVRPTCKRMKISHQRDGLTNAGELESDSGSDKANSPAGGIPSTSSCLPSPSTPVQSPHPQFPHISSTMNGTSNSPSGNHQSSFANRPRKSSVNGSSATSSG
UniProt Q06587: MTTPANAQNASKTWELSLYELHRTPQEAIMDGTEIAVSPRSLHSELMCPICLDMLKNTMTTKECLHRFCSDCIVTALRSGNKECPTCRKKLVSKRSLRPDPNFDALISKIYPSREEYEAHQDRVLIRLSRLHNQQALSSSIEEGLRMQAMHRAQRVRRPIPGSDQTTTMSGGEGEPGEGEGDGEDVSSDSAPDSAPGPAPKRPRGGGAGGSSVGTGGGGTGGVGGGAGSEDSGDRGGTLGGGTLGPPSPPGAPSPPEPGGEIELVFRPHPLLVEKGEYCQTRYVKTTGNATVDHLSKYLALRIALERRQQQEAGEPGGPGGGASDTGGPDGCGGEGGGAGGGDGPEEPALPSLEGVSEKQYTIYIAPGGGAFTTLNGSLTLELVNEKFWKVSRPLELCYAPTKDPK
UniProt Q99496: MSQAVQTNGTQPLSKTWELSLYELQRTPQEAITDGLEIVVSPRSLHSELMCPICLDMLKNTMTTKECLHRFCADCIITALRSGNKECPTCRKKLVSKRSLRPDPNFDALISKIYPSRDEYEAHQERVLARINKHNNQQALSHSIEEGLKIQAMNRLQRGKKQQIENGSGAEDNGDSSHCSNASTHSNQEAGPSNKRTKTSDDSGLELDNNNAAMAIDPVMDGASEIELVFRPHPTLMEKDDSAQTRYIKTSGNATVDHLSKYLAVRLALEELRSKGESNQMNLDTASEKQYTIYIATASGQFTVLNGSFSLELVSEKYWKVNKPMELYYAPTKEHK

Common to all, as to assay: co-IP; endogenous proteins; antibody against the bait crosslinked to Protein A beads, incubated with NT2 nuclear lysate with 250 U/mL benzonase at 4 °C overnight, washed five times in Buffer C100 with 0.02% Nonidet P-40; eluate analysed by immunoblotting
Assay [1] concerns the target PCGF1 (human (endogenous in NT2)) (UniProt Q9BSM1).
For assay [2], the target named is T1, PCGF2 (human (endogenous in NT2)) (UniProt P35227).
T1 sequence: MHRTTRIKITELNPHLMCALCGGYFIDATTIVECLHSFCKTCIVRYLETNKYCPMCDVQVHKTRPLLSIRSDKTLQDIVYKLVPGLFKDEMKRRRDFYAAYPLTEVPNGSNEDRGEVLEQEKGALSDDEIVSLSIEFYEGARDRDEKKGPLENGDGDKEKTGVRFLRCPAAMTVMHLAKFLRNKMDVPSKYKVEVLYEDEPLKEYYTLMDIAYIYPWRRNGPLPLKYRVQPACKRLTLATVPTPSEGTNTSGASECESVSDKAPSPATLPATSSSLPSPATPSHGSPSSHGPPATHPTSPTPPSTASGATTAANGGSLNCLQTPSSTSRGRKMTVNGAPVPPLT

The target in assay [3] is PCGF4/BMI1 (human (endogenous in NT2)) (UniProt P35226).

Results are given in words; binding and its absence hold for the method and conditions named. Binding seen in cells or lysates may run through a third protein. Some results given as binding are weak or reduced against the parent protein; the word gives no strength.

In the case of RING1A (from UniProt Q06587 1-406), the binding entry in assay [1], in assay [2] and in assay [3] was “binds” in each case.

In the case of RNF2/RING1B (from UniProt Q99496 1-336), in assay [2], the binding entry is given as “binds”.
